Measurements as given in article doi:10.1101/2024.12.18.629124.
No constants are given. Whether binding was seen depends on the method and setting. Some entries that bind do so weakly or less than the wild type.

Protein sequences, listed by entry. Tags and fused reporters are not part of them.
UniProt Q9V535, whole entry: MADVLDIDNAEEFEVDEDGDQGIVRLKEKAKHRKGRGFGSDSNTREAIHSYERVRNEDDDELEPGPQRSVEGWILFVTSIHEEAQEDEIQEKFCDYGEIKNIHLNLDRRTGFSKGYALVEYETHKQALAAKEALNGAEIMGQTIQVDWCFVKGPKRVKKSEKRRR
UniProt P49028, whole entry: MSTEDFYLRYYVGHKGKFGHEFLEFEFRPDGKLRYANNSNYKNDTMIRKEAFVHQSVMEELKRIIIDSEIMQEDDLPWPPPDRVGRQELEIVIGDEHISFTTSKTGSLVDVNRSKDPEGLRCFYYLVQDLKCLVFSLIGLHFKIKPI

Target: Y14 (Drosophila) (UniProt Q9V535)
Experiment: co-purification

binding: binds
Substance: Mago (from UniProt P49028 1-147)
